## Percent effect of library compounds

By UniProt entry, the sequences of proteins in these tests, tags left out. Residues count along the entry.
UniProt A4I591, 1-473: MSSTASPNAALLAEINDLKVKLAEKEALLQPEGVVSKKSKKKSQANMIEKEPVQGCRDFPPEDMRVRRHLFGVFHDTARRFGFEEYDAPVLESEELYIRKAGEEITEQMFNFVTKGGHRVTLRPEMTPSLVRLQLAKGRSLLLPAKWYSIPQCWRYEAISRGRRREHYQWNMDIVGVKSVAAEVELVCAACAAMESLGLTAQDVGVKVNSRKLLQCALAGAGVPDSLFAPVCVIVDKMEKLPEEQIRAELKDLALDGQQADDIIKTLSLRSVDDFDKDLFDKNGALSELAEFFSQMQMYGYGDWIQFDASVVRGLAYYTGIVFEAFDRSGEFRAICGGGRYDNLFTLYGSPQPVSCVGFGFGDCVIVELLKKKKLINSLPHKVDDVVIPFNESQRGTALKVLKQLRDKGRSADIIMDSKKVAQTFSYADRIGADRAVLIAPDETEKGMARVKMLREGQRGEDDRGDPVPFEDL
UniProt P9WFT3, whole entry: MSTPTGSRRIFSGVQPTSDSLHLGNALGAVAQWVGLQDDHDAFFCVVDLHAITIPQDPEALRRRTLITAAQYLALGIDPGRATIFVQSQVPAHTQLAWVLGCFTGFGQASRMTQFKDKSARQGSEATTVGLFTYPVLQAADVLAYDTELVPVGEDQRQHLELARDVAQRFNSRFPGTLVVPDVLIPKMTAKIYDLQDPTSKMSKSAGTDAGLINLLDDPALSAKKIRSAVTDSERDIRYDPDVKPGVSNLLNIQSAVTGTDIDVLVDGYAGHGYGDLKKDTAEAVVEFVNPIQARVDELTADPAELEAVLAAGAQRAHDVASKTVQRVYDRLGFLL
UniProt P9WNZ1, whole entry: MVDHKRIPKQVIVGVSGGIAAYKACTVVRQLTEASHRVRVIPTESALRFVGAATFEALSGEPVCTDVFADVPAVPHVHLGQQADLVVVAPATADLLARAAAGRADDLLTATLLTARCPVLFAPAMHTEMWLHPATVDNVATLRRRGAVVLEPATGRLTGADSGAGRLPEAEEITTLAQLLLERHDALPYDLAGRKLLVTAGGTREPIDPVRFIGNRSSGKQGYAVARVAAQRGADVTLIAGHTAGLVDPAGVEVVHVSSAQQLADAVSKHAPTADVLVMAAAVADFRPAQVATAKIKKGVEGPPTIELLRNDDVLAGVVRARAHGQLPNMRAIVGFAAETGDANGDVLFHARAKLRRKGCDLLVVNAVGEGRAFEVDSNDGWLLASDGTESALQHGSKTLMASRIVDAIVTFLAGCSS

Source: ChEMBL document CHEMBL3988442, “University of Dundee, Small-Polar-MMV Screening Library” (2021).

A: 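Enzyme assay of histidyl-tRNA synthetase; the read-out is not stated. Target: Histidine-tRNA ligase, Leishmania infantum (UniProt A4I591). Concentration: 30 µM. Higher reads as stronger inhibition (inferred: compounds with an IC50 in retests scored well above the rest). The assay is labelled LdHisRS but filed under L. infantum. Of about 69,000 compounds tested this way, about 410 (0.6%) reached 50% or more in at least one test.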
B: 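Enzyme assay of tryptophanyl-tRNA synthetase; the read-out is not stated. Target: Tryptophan-tRNA ligase, Mycobacterium tuberculosis (UniProt P9WFT3). Compounds at 10 µM. Direction is not recorded; retested compounds ran higher, which suggests that high means inhibition. Size under these conditions: about 65,000 compounds, about 64 of them at 50% or above in at least one test.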
C: 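Coenzyme A biosynthesis protein CoaBC, Mycobacterium tuberculosis (UniProt P9WNZ1). Enzyme assay of CoaBC with a phosphate dye (Biomol Green) read at 650 nm. Concentration: 30 µM. Higher reads as stronger inhibition, judged from the few compounds that gave an IC50. Most strong results did not repeat in a second test. About 67,000 compounds were tested under these conditions; 0.06% (about 40) showed 50% or more at least once.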

Results are given as percent effect. How 0% and 100% were set is not recorded. Most values in the screen are low, and negative values occur. This is an unselected part of the compounds tested. Two or more numbers in one place are separate tests of the same structure; such repeats can differ widely. A dash means the value is not listed here; it may have been measured.

| # | Compound | A | B | C |
|---|---|---|---|---|
| 1 | `CCn1cc(CN2CCCN(C(=O)CCSC)CC2)cn1` | 8.696 | 2.045 | 4.258 |
| 2 | `CC(C)CCN1CCN(Cc2nc(C3CC3)no2)CC1` | -3.846 | 5.253 | -2.277 |
| 3 | `CC(C)(C)c1oc(C(N)=O)cc1CN1CCCCC1CN1CCOCC1` (stereo not shown) | 11.83 | 2.434 | 2.558 |
| 4 | `O=C([C@@H]1CCO[C@@H]2CCN(Cc3cccnc3)C[C@H]21)N1CCCCO1` | 11.65 | 2.412 | 7.402 |
| 5 | `COCCNC(=O)NCCS(=O)(=O)N1CCN(c2cccc(C)c2)CC1` | 13.22 | -1.095 | 3.371 |
| 6 | `O=C(CN1CCCC1Cn1cncn1)Nc1cccnc1` (stereo not shown) | 20.19 | -2.844 | 0.4219 |
| 7 | `Cn1ncc2c1C(COCC1CC1)CN(C(=O)Cc1ccsc1)C2` (stereo not shown) | 7.965 | -2.948 | 9.053 |
| 8 | `Cc1cnc(C)c(N2CCC(Cc3ccccc3Cl)(C(=O)O)CC2)n1` | 26.23 | 2.199 | 12.02 |
| 9 | `O=C(c1cc2ccccc2c(=O)[nH]1)N1CCN(CCO)CC1` | 9.434 | -0.1649 | 2.316 |
| 10 | `COc1ccc(CNCC(O)c2cccc(O)c2)cc1Br` (stereo not shown) | 0 | 3.704 | -30.09 |
| 11 | `Cc1ccc(OCCC(=O)NC(C)c2ccncc2)cc1` (stereo not shown) | 9.677 | -0.7048 | 3.912 |
| 12 | `CCn1ccnc1CN(C)c1nc(-c2ccc(Cl)cc2)nc2c1CNC2` | 25.6 | -2.709 | -6.341 |
| 13 | `COc1cc(NC(=O)Cn2ccc3sc(C)cc3c2=O)cc(OC)c1` | 10.68 | 2.315 | -2.155 |
| 14 | `CC(=O)N1CCc2nc(-c3ccc(F)cc3)nc(NC(C)C)c2CC1` | -2.727 | - | -1.728 |
| 15 | `C[C@@H]1C(=O)NC[C@H]2CN(Cc3ccc4c(c3)OCO4)C[C@H]21` | 15.6 | -3.814 | 7.059 |
| 16 | `CC1CCN(C(=O)C2(Cc3cc(C4CCOC4)no3)CCNCC2)CC1` (stereo not shown) | 9.929 | -2.888 | -0.6993 |
| 17 | `COCC1c2nnn(CC3CC3)c2CCN1C(=O)c1cccn1C` (stereo not shown) | 22.37 | 1.954 | -2.116 and 22.9 |
| 18 | `CCn1nc(C)c(-c2cncn2CCN(C)C2CCCC2)c1C` | 12.86 | -2.467 | 2.67 |
| 19 | `O=C(CN1CCOC(CNc2cccnn2)C1)NCc1ccccn1` (stereo not shown) | 0.8696 | 11.12 | 5.216 |
| 20 | `Cn1nc(-c2cccs2)cc1[C@H]1CN2CC[C@H]1C[C@@H]2CNS(C)(=O)=O` | 16.22 | -2.822 | -22.2 |
| 21 | `Cc1nc(N2CCC3(CCOC3)C2)c2cc[nH]c2n1` (stereo not shown) | -3.333 | 3.905 | -1.22 |
| 22 | `CN1CC(c2ccccc2)CC2(CCN(C(=O)c3ccccc3)CC2)C1` (stereo not shown) | 22.22 | -2.673 | 5.159 |
| 23 | `CCN1CCC(NC(=O)CN2CCCCC2Cn2cncn2)CC1` (stereo not shown) | 6.087 | -7.157 | 3.181 |
| 24 | `CCc1ncc2c(n1)CN(Cc1nc(-c3ccco3)oc1C)CC2` | 17.65 | 1.211 | 13.92 |
| 25 | `CNC(=O)CS(=O)(=O)C1CCN(S(=O)(=O)c2c(F)cccc2F)CC1` | 11.54 | 1.212 | -8.742 |
| 26 | `CCN(CC1CCCO1)C(=O)CSCC(=O)Nc1ccc(C)cc1` (stereo not shown) | 4.478 | 1.365 | -12.45 |
| 27 | `COC(=O)C(CNC(=O)Nc1nncs1)Cc1ccc(O)cc1` (stereo not shown) | -2.667 | 0.2901 | 0.4132 |
| 28 | `Cc1ccc(C(C(=O)NCCN2CCC(CO)CC2)N(C)C)cc1` (stereo not shown) | 10.75 | -0.8974 | 1.474 |
| 29 | `CC(C)CNC(=O)N1C[C@@H]2CCCN[C@@H]2C1` | 15.53 | -3.8 | 2.036 |
| 30 | `COc1ccccc1C(C)(C)NCc1ccco1` | -48.57 | -5.047 | 7.253 |
| 31 | `CNC(=O)CN1CCCC12CCN(C(=O)c1cccc(F)c1)CC2` | -30.77 | 17.3 | 6.306 |
| 32 | `CC(C)c1nc2n(n1)CC(Nc1ncnc3c1CCC3)CC2` (stereo not shown) | 12.82 | -2.594 | -2 |
| 33 | `COCC(=O)NC(C)Cc1cccc(OC)c1` (stereo not shown) | 26.4 | 0.1572 | -0.266 |
| 34 | `CCN(Cc1ccccc1)Cc1nc2c(cnn2C)c(=O)[nH]1` | 0.885 | 7.273 | -1.828 |
| 35 | `Cc1ccc(CCc2nc(C3CCOC3)no2)o1` (stereo not shown) | 10.84 | -1.683 | 4.893 |
| 36 | `Cc1nc(C(C)C)sc1C(=O)NCCn1ccnc1` | 20 | -0.2469 | 1.961 |
| 37 | `O=C(c1cccnc1)N1CCCC1c1nc(O)cc(-c2ccccn2)n1` (stereo not shown) | 2.062 | - | 4.6 |
| 38 | `CC(C)(C)c1ccc2c(c1)CCN2C(=O)c1[nH]c(=O)[nH]c(=O)c1N` | 19.18 | -5.062 | 5.179 |
| 39 | `CS(=O)(=O)NCC1CCN(C(=O)Oc2ccccc2)CC1` | 10.17 | -3.391 | 3.388 |
| 40 | `COc1cccc(CNCc2ccc(NC(=O)NC(C)C)cc2)c1` | 11.97 | 3.123 | -9.92 |
| 41 | `O=C(CNC(=O)c1cnccn1)Nc1ncc[nH]1` | 18.42 | 4.832 | 2.273 |
| 42 | `COC(=O)N1CCCCC1C(=O)N(C)Cc1cc(-c2cccnc2)no1` (stereo not shown) | 9.167 | 0.6192 | - |
| 43 | `Cc1cc(C2CCCN2CCCS(=O)(=O)c2ccccc2)no1` (stereo not shown) | -4.255 | 2.45 | 0.7772 |
| 44 | `O=C(NCCOc1ccc2c(c1)OCO2)C1CC(=O)N(CC2CC2)C1` (stereo not shown) | 25.76 | -1.852 | 3.84 |
| 45 | `COc1ccc2[nH]cc(C(=O)N3CC[C@H](CO)[C@@H](O)C3)c(=O)c2c1` | 11.11 | 0.729 | 3.571 |
| 46 | `CCN(Cc1noc(CC(C)C)n1)C[C@]1(O)CCCN2CCCC[C@@H]21` | 0.8333 | 0.1447 | 0.1242 |
| 47 | `CNc1ccnc(N2C[C@@H]3CC[C@H](C2)N(CCOC)C3=O)n1` | 21.88 | -0.3749 | 8.026 |
| 48 | `Cn1cc(CN2CC[C@H]3C[C@@H](c4nc(C5CC5)cs4)O[C@@H]3C2)cn1` | 28.77 | 9.558 | 3.1 |
| 49 | `CN(C(=O)CC1=CCCCC1)C1CCCN(C2Cc3ccccc3C2)C1` (stereo not shown) | -40.8 | 4.71 | 3.016 |
| 50 | `Cc1ccc(C(=O)N(C)Cc2csc(Br)c2)c(=O)[nH]1` | 11.24 | 2.201 | -0.361 |
| 51 | `COCC1CN(Cc2ccc(C)s2)Cc2nnn(C)c21` (stereo not shown) | 9.722 | -7.895 | -11.85 |

Some entries from above, unchanged:

CCn1nc(C)c(-c2cncn2CCN(C)C2CCCC2)c1C gave A: 12.86%; B: -2.467%; C: 2.67%.
COc1ccccc1C(C)(C)NCc1ccco1 gave A: -48.57%; B: -5.047%; C: 7.253%.
COc1ccc2[nH]cc(C(=O)N3CC[C@H](CO)[C@@H](O)C3)c(=O)c2c1 gave A: 11.11%; B: 0.729%; C: 3.571%.
Cn1cc(CN2CC[C@H]3C[C@@H](c4nc(C5CC5)cs4)O[C@@H]3C2)cn1 gave A: 28.77%; B: 9.558%; C: 3.1%.